According to patent publication US8232282B2, “Compound having bicyclic pyrimidine structure and pharmaceutical composition comprising the same” (Dainippon Sumitomo Pharma Co., Ltd., priority 2006, dated 2012):
Some entries share one result that the patent states for a list of compounds.

Test system: fat absorption at the small intestine
Assay: Inhibitory activity of fat absorption at the small intestine (olive oil loading, plasma chylomicron TG)
Format: in vivo
Conditions: ICR mice fasted overnight; 30 mg/kg suspended in olive oil (4 mL/kg) via gavage; plasma three hours after administration

Structure (SMILES) | suppression of the increase of plasma chylomicron TG
COc1ccc(CNc2nc3c(c(=O)n2-c2ccccc2)CN(C(=O)Nc2ccc(Cl)cc2Cl)CC3)cc1 [Example 1, N-(2,4-dichlorophenyl)-2-[(4-methoxybenzyl)-amino]-4-oxo-3-phenyl-3,5,7,8-tetrahydropyrido[4,3-d]pyrimidine-6(4H)-carboxamide] | more than 60%
COc1ccc(CNc2nc3c(c(=O)n2-c2ccccc2)CN(C(=O)Nc2ccc(F)c(F)c2)CC3)cc1 [Example 2, 2N-(3,4-difluorophenyl)-2-[(4-methoxybenzyl)amino]-4-oxo-3-phenyl-3,5,7,8-tetrahydropyrido[4,3-d]-pyrimidine-6(4H)-carboxamide] | more than 60%
